# Screening data, single-dose tests

The filed quantity is “Percent Effect” (%). The controls that fix the scale are not given in the record; negative values are as filed. Compounds were drawn at random from those tested, without regard to their results. Two or more numbers in one place are separate tests of the same structure; such repeats can differ widely. A dash means the value is not listed here; it may have been measured.

A: 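Assay of Toxoplasma gondii numbers, read through their beta-galactosidase reporter with a colour substrate. Tested at 10 µM. Higher reads as fewer parasites (inferred from which compounds were picked for retests). About 67,000 compounds were tested under these conditions; 0.38% (about 260) showed 50% or more at least once.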
B: 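Whole-parasite assay of Trypanosoma brucei over 72 hours; the read-out is not stated. Concentration: 30 µM. The record gives no direction; compounds that gave an IC50 in retests scored well above the rest, so higher reads as stronger inhibition. Values scatter widely below zero; nearly all retest evidence comes from the higher of the two concentrations used. Size under these conditions: about 64,000 compounds, about 940 of them at 50% or above in at least one test.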
C: 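Cell assay of Leishmania donovani living inside macrophages; the read-out is not stated. Concentration: 30 µM. Direction is inferred from retests: higher values go with stronger inhibition. Size under these conditions: about 69,000 compounds, about 1,000 of them at 50% or above in at least one test.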

Compound,A,B,C
[H][C@@]12C[C@@H](c3nnc(C4CC4)o3)O[C@]1([H])CN(CC1CCC1)C2,3.632,-10.38,3.375
CC(C)Cc1noc(CN(C)c2ncccn2)n1,1.872,-25.2,2.13
COc1ccc(C(=O)c2cnc(C(C)C)n2C)cc1,17.36,-65.74,16.09
COc1ccc(SC(C)C(=O)N2CCC(O)CC2)cc1 (stereo not shown),-5.826,-19.6,21.27
c1cnc(-c2cnc(N3CCCCC3)nc2C2CCCO2)cn1 (stereo not shown),-3.321,20.56,-6.748
c1cn(CC2CC2)c(C2CCN(CCC3CCOC3)CC2)n1 (stereo not shown),-9.464,-15.63,-2.133
O=C(O)C(F)(F)F.[H][C@]12CC[C@@]3(N=C(C)N(CC(C)C)C3=O)[C@@]1([H])CN(CC1CC1)C2,-7.185,-14.73,11.37
Cc1cc(C(=O)NCc2cccs2)nc(N2CCCC2)n1,4.916,-19.1,-110.8
CC(C)(O)CCc1cccc(C(=O)NCC2COCCO2)c1 (stereo not shown),-1.15,-3.612,1.818
CC(=O)N1CCCC(c2nnc3n2CCN(C(=O)C2CCCCC2)C3)C1 (stereo not shown),-13.43,9.155,23.71
CCc1cnc(N2CCc3cc(C(=O)NC)c(N(C)C)nc3CC2)nc1.O=C(O)C(F)(F)F,5.143,-9.317,11.67
COCCN1CCC2(C1)c1ccccc1S(=O)(=O)N2C.O=C(O)C(F)(F)F (stereo not shown),8.491,-33.32,10.96
CCOCC1CN(Cc2cc(C)on2)Cc2cn(C)nc21 (stereo not shown),-4.187,-16.9,-15.92
Cn1c(CN2CCCCC2)nnc1C1CCCN(C(=O)CCC(N)=O)C1 (stereo not shown),2.624,-23.62,14.29
CCC1(CC)C(=O)NC(=O)N=C1Nc1ccc(C)cc1,-9.686,-25.91,16.75
O=C(c1ccco1)N(CC(F)(F)F)C1CCOCC1,-10.85,-19.81,15.69
O=C(c1ccccc1F)N1CCN(CCCn2cncn2)CC1,-0.3277,-11.17,7.98
CCc1noc(C(C)N2CCCN(Cc3noc(C4CC4)n3)CC2)n1 (stereo not shown),5.622,-44.32,24.69
O=C(O)C(F)(F)F.[H][C@@]12COC[C@H](C(=O)N3CCOCC3)[C@]1([H])CN(C1CCCCC1)C2,-8.305,-20.07,26.32
Cc1nc(CN2CCN(C(C)c3nc(C4CC4)no3)CC2)oc1C (stereo not shown),-36.74,-,21.22
Cn1nc(C(=O)N(CC(F)(F)F)c2cccc(Cl)c2)ccc1=O,-6.815,-16.43,-13.04
Cc1nc(C(=O)N2CCCC2c2c(C)nn(C)c2C)cs1 (stereo not shown),-14.46,-10.25,10.9
CCC(C)[C@H](N)c1nnc(SCC(=O)Nc2ccc(Br)cc2)o1.Cl (stereo partly shown),13.22,-51.71,6.495 and 4.813
O[C@H]1CN(CCCOc2ccccc2F)CC[C@@]12CCCO2,7.878,-10.82,-17.29
CCCc1nnsc1C(=O)NCC1CCN(c2ncccn2)CC1,3.213,-3.219,10.89
Cc1ccc(CN(CCCn2ccnc2)Cc2cc(F)ccc2F)s1.O=C(O)CC(O)(CC(=O)O)C(=O)O,64.14,-12.95,67.82 and 21.63
CC(=O)Nc1nc(SCc2ccc3c(c2)OCO3)ns1,-5.859,-49.92,-8.112
O=C(NCCOc1ccc(F)cc1)C1CCCN(C(=O)C2CC2)C1 (stereo not shown),3.612,-15.37,27.52
CC(C)(C)c1cc(NC(=O)CN2CCCC2Cn2cncn2)on1 (stereo not shown),-3.709,-36.21,0.7704
CCc1ccc(C(=O)N2CCC(c3nncn3CC)CC2)cc1,-0.6536,1.074,11.3
[H][C@@]12CCCN1C[C@H](Cc1ccccc1)N(Cc1cnn(C=C)c1C)C2,0.3203,19.39,49.13
CCc1noc(CN2CCCN(C(N)=O)CC2)n1,-,-40.79,-22.43
Cc1ccccc1CC1(C(=O)O)CCCN(c2ncnc3[nH]ccc23)C1 (stereo not shown),15,-61.74,-3.526
N#CC1(C(=O)N2CCC(Nc3cccnn3)CC2)CCCCC1,-11.43,4.753,15.25
Cc1nnc(C2Cc3ccccc3CN2Cc2nc(C3CC3)no2)o1 (stereo not shown),-6.058,-3.012,26.54
Cc1csc(N2CCN(Cc3cccnc3)CC2C)n1 (stereo not shown),-19.83,3.252,-16.06
CC(NCC1(N(C)C)CCOCC1)c1ccc(Cl)cc1 (stereo not shown),-0.8866,-27.42,8.309
Cn1cc(NC(=O)Cn2cc(-c3ccccc3)ncc2=O)cn1,-11.34,-51.08,28.08
CS(=O)(=O)N1CCC(O)(Cn2c(C3CC3)nc3ccccc3c2=O)CC1,4.548,-27.37,22.96
Cc1nc(-c2ccco2)ccc1C(=O)N1CCc2nnc(N)cc2C1,-2.38,8.816,-6.596
CCn1ccnc1CN1CCCN(C(=O)c2cc(Cl)c[nH]2)CC1,-8.947,6.463,16.39
Cc1cccc(CN(Cc2nc3c(cnn3C)c(=O)[nH]2)C2CC2)c1,1.048,22.06,15.67
Cc1ccc(C(NC(=O)C2CC2)c2cccc(S(C)(=O)=O)c2)cc1 (stereo not shown),-7.361,-25.5,-10.95
CCCN(C)CC1CCN(c2ccc(Br)c(C)n2)C1 (stereo not shown),5.316,-33.22,18.43
CC(C)CNC(=O)CNc1c(NCc2ccccn2)c(=O)c1=O,10.7,-17.57,14.72
CC1(C)CC(N(Cc2cccnc2)Cc2cccc(F)c2)CC(C)(C)N1.O=C(O)CC(O)(CC(=O)O)C(=O)O,15.43,92.81,37.94 and 11.02
Cn1ccnc1CN1CCCC1c1noc(C2CC2)n1 (stereo not shown),3.431,-3.169,7.921
CCCn1[nH]cc/c1=N\C(=O)CN1CCc2c(nc(C3CC3)n2C)C1,7.896,-,5.491
CCN(Cc1cccc2c1OCO2)C(=O)Nc1ccccn1,-18.4,-,15.53

The last 5 entries again:

{"compound": "CC(C)CNC(=O)CNc1c(NCc2ccccn2)c(=O)c1=O", "A": 10.7, "B": -17.57, "C": 14.72}
{"compound": "CC1(C)CC(N(Cc2cccnc2)Cc2cccc(F)c2)CC(C)(C)N1.O=C(O)CC(O)(CC(=O)O)C(=O)O", "A": 15.43, "B": 92.81, "C": "37.94 and 11.02"}
{"compound": "Cn1ccnc1CN1CCCC1c1noc(C2CC2)n1", "stereo": "stereo not shown", "A": 3.431, "B": -3.169, "C": 7.921}
{"compound": "CCCn1[nH]cc/c1=N\\C(=O)CN1CCc2c(nc(C3CC3)n2C)C1", "A": 7.896, "C": 5.491}
{"compound": "CCN(Cc1cccc2c1OCO2)C(=O)Nc1ccccn1", "A": -18.4, "C": 15.53}

Data taken from ChEMBL document CHEMBL3988442, “University of Dundee, Small-Polar-MMV Screening Library” (2021).